Among the data in PubChem BioAssay AID256 (DTP/NCI, 2004) are survivor count and T/C values, retold here.

The test deals with CD2F1 mice, L1210 leukemia ip, survival T/C. The experiment in a line: NCI In Vivo Anticancer Drug Screen. Data for tumor model L1210 Leukemia (intraperitoneal) in CD2F1 (CDF1) mice. Conditions: higher T/C = longer survival. Summed up:
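Compound-dosed mice with transplantable tumor versus matched vehicle controls; endpoint ratio T/C reported.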

[1] abbreviates: T/C endpoint: mean survival time, dose: 25.0 mg/kg/injection, schedule: Q01DX009 (ip), vehicle: saline with Tween-80.
Setting [2] is: T/C endpoint: mean survival time, dose: 50.0 mg/kg/injection, schedule: Q04DX003 (ip), vehicle: saline with Tween-80.
[3] abbreviates: T/C endpoint: mean survival time, dose: 100.0 mg/kg/injection, schedule: Q04DX003 (ip), vehicle: saline with Tween-80.
Setting [4] is: T/C endpoint: mean survival time, dose: 200.0 mg/kg/injection, schedule: Q04DX003 (ip), vehicle: saline with Tween-80.
[5] abbreviates: T/C endpoint: mean survival time, dose: 400.0 mg/kg/injection, schedule: Q04DX003 (ip), vehicle: saline with Tween-80.
Setting [6] is: T/C endpoint: mean survival time, dose: 400.0 mg/kg/injection, schedule: Q01DX009 (ip), vehicle: saline with Tween-80.
The mark [7] stands for this setting: T/C endpoint: mean survival time, dose: 200.0 mg/kg/injection, schedule: Q04DX002 (ip), vehicle: saline with Tween-80.
The mark [8] stands for this setting: T/C endpoint: mean survival time, dose: 100.0 mg/kg/injection, schedule: Q01DX009 (ip), vehicle: saline with Tween-80.
Where [9] appears, read: T/C endpoint: mean survival time, dose: 200.0 mg/kg/injection, schedule: Q01DX009 (ip), vehicle: saline with Tween-80.
Setting [10] is: T/C endpoint: mean survival time, dose: 100.0 mg/kg/injection, schedule: Q04DX002 (ip), vehicle: saline with Tween-80.

The list does not hold the whole screen: it gathers tests that were run many times, whatever their T/C, doses with no T/C, and many T/C values between a quarter and a half above the control. Other doses and runs of a compound stand elsewhere. T/C is the treated group as % of the vehicle group. Some entries give survivors of the animals treated and no T/C: the source holds a T/C of zero for them, seemingly a mark for toxic or unscored doses. Some doses without a T/C left all or most animals alive at the check, yet need not have been tolerated: survival well below the control is almost never listed, so the zero probably covers shortened survival too. Survivors were counted at the toxicity check, usually on the fifth day, unless a day is given; later deaths do not show. Schedules are NCI's codes, taken here to give the interval after Q, in days (D) or hours (H), and the number of doses after X. Some entries hold several experiments; their values stand side by side, smallest first. Where survival is the endpoint, this PubChem deposit counts one and a half times the control or more as active, and values a quarter to a half above the control carry no call in these data; other NCI protocols may use other cut-offs. Some T/C values are followed by the survivors on the day toxicity was checked, most often the fifth; where none is given, no animal had died by that day.

For `CC(=O)CC(C)=O.CC(=O)CC(C)=O.CC(=O)CC(C)=O.[Fe]`, the survivor count by setting is: under setting [1], 3 of 6; under setting [2], 0 of 6; under setting [3], 5 of 6; under setting [4], 0 of 6; under setting [5], 0 of 6.

Consider `CN(C)C(=O)c1cccc(COc2ccc(N)cc2Cl)c1`, for which the survivor count under setting [3] is reported as 6 of 6.

For the molecule `COc1cc(OC)cc(C2=NNc3n[nH]c(=S)n3N2)c1`, the survivor count under setting [6] is on record as 3 of 6.

On to `CCC1(C)C(C#N)C(=O)NC(=O)C1C#N` (stereo not drawn), for which the survivor count (T/C endpoint: mean survival time, dose: 200.0 mg/kg/injection, schedule: Q01DX009 (ip), vehicle: saline sonified) is listed as 2 of 6 and the survivor count under setting [5] is 2 of 6.

`CN1CCc2[nH]c3ccccc3c2C1`: the survivor count (T/C endpoint: mean survival time, dose: 300.0 mg/kg/injection, schedule: Q01DX001 (ip), vehicle: other) was 0 of 6 and the survivor count (T/C endpoint: mean survival time, dose: 400.0 mg/kg/injection, schedule: Q04DX002 (ip), vehicle: Klucel (hydroxypropylcellulose) (HPC)) was 0 of 3.

Consider `NS(=O)(=O)O`, for which the survivor count by setting is: under setting [3], 3 of 6; under setting [4], 1 of 6; under setting [5], 0 of 6.

As to `COc1ccc2nc3cc(Cl)ccc3c(NCCC[N+](C)(C)CCCCCCCCCC[N+](C)(C)CCCNc3c4ccc(Cl)cc4nc4ccc(OC)cc34)c2c1`, the survivor count is, setting by setting: (T/C endpoint: mean survival time, dose: 12.5 mg/kg/injection, schedule: Q01DX009 (ip), vehicle: saline with Tween-80) 0 of 6; under setting [1], 0 of 6.

For `COc1ccc(NC(=O)Oc2ccc(Cl)cc2Cl)cc1`, under setting [7], the survivor count is reported as 3 of 3.

As for `CCOC(=O)C(C#N)c1ccccc1` (stereo not drawn), the survivor count (T/C endpoint: mean survival time, dose: 400.0 mg/kg/injection, schedule: Q04DX002 (ip), vehicle: saline with Tween-80) is listed as 0 of 3.

As for `CC1(C)N=C(N)N=C(N)N1c1ccc(OCCCCNC(=O)c2ccc(S(=O)(=O)F)cc2)c(Cl)c1`, the T/C under setting [8] was 128 % of control [5 of 6 alive]. Moreover, the survivor count was 2 of 6 under setting [8] and 2 of 6 under setting [9].

Turning to `Clc1ccc(C[P+](c2ccccc2)(c2ccccc2)c2ccccc2)c(Cl)c1`, the survivor count by setting is: (T/C endpoint: mean survival time, dose: 10.0 mg/kg/injection, schedule: Q01DX009 (ip), vehicle: saline sonified) 3 of 6; (T/C endpoint: mean survival time, dose: 20.0 mg/kg/injection, schedule: Q01DX009 (ip), vehicle: saline sonified) 2 of 6; under setting [2], 0 of 6; (T/C endpoint: mean survival time, dose: 75.0 mg/kg/injection, schedule: Q01DX001 (ip), vehicle: water) 0 of 6; under setting [3], 0 of 6; (T/C endpoint: mean survival time, dose: 150.0 mg/kg/injection, schedule: Q01DX001 (ip), vehicle: water) 0 of 6. Besides, the survivor count reads like this: under setting [4], 0 of 6; (T/C endpoint: mean survival time, dose: 300.0 mg/kg/injection, schedule: Q01DX001 (ip), vehicle: water) 0 of 6; under setting [5], 0 of 6.

In the case of `O=C1NC(CN2CCCC(O)C2)C(=O)NC1CN1CCCC(O)C1` (stereo not drawn) (tested in a mixture with another compound), where the note is “T/C endpoint: mean survival time, dose: 100.0 mg/kg/injection, schedule: Q01DX009 (ip), vehicle: water”, the T/C was 132 % of control. Besides, the survivor count is, setting by setting: (T/C endpoint: mean survival time, dose: 200.0 mg/kg/injection, schedule: Q01DX009 (ip), vehicle: water) 2 of 3; (T/C endpoint: mean survival time, dose: 400.0 mg/kg/injection, schedule: Q01DX009 (ip), vehicle: water) 1 of 3.

Turning to `c1ccc(OCC2(N3CCCCC3)CCCC2)cc1`, the survivor count under setting [10] was 1 of 3.

Turning to `COc1cc(NS(C)(=O)=O)ccc1Nc1c2ccc([N+](=O)[O-])cc2nc2c(C)cccc12`, for the setting “T/C endpoint: mean survival time, dose: 3.75 mg/kg/injection, schedule: Q01DX009 (ip), vehicle: saline with Tween-80”, the T/C is 147 % of control. Besides, the survivor count is reported as 6 of 6 (T/C endpoint: mean survival time, dose: 15.0 mg/kg/injection, schedule: Q01DX009 (ip), vehicle: saline with Tween-80) and 0 of 6 (T/C endpoint: mean survival time, dose: 150.0 mg/kg/injection, schedule: Q04DX003 (ip), vehicle: saline).

As to `O=C(/C=C/c1ccccc1O)/C=C/c1ccccc1O`, the survivor count under setting [8] is 3 of 6.

For the molecule `c1cc[n+](Cc2ccc3ccccc3c2)c(C2OCCO2)c1`, the survivor count is 0 of 6 under setting [8], 0 of 6 under setting [9] and 1 of 6 under setting [6].

For the molecule `COc1cccc(Sc2ccc([N+](=O)[O-])c3no[n+]([O-])c23)c1`, the survivor count (T/C endpoint: median survival time, dose: 120.0 mg/kg/injection, schedule: Q01DX009 (ip), vehicle: saline with Tween-80) is 6 of 6; the survivor count (T/C endpoint: median survival time, dose: 240.0 mg/kg/injection, schedule: Q01DX009 (ip), vehicle: saline with Tween-80) is 1 of 6 and 5 of 6.

For the molecule `COC(=O)Nc1ccc(NC(=O)c2cscn2)c(NC(=O)OC)n1`, under setting [5], the survivor count is 5 of 6.

With `O=[N+]([O-])c1cccc(S(=O)(=O)O)c1.[Fe]`, the survivor count (T/C endpoint: mean survival time, dose: 200.0 mg/kg/injection, schedule: Q01DX009 (ip), vehicle: saline) is reported as 3 of 6.

Take `CS(=O)(=O)c1ccncc1`: the survivor count (T/C endpoint: mean survival time, dose: 400.0 mg/kg/injection, schedule: Q04DX003 (ip), vehicle: saline sonified) is 3 of 6.

Consider `CCCCCCCCCCCCCCCCOc1ccc(C(C)=O)cc1`, for which the survivor count under setting [8] is on record as 6 of 6.

Take `OCCSc1c(Cl)c(Cl)c(Cl)c(Cl)c1Cl`: the survivor count by setting is: under setting [10], 3 of 3; under setting [7], 3 of 3.

In the case of `O=c1[nH]c2ccccc2nc1CBr`, the survivor count reads like this: under setting [1], 1 of 6; (T/C endpoint: mean survival time, dose: 30.0 mg/kg/injection, schedule: Q01DX009 (ip), vehicle: saline with Tween-80) 5 of 6; (T/C endpoint: mean survival time, dose: 50.0 mg/kg/injection, schedule: Q01DX009 (ip), vehicle: saline with Tween-80) 4 of 6.

For the molecule `O=c1[nH]c2c(ccc3cnccc32)c2c1CCC2`, the survivor count (T/C endpoint: mean survival time, dose: 100.0 mg/kg/injection, schedule: Q01DX009 (ip), vehicle: saline) is 2 of 6 and 3 of 6.
